Among the data in publication PMC9546770 are binding values, retold here.

Chains of the proteins cited; added tags and fusions are not shown.
UniProt Q05397: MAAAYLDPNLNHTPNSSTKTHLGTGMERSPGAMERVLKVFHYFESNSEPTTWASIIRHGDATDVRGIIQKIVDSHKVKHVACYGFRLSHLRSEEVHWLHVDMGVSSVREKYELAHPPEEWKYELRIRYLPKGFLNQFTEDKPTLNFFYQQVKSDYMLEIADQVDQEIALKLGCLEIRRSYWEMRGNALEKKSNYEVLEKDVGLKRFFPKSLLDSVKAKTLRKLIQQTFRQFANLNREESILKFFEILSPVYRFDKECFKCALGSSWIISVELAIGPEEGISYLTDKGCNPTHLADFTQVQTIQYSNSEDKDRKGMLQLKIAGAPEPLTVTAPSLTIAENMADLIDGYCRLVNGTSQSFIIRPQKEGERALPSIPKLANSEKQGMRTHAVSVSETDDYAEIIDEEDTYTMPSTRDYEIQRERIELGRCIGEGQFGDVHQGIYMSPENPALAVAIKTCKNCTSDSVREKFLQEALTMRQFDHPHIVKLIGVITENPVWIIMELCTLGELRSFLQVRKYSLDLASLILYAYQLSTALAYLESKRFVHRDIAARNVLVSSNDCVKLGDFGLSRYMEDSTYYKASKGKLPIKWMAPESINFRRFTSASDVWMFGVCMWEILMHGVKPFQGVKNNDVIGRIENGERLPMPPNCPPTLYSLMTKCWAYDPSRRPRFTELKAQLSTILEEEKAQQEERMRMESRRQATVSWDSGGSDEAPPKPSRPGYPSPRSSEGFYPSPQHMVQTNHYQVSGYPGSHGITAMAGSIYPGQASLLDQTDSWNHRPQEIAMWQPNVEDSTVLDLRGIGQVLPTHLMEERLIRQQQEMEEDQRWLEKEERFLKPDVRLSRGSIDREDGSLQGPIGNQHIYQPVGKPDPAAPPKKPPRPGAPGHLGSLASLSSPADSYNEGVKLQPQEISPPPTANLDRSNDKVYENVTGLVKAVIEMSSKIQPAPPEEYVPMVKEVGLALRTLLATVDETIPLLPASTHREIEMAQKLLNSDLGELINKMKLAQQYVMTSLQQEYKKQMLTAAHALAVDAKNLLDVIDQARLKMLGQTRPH

No constants are given. Whether binding was seen depends on the method and setting. Binding seen in cells or lysates may run through a third protein. Some binding calls cover weakened binding; strength is not graded here. For part of these data: Tags and fused reporters may be left off the sequences shown.

Assay [1] deals with T1, Myc-tagged IGSF9 (1-493 aa) (UniProt Q05BQ1).
T1 sequence: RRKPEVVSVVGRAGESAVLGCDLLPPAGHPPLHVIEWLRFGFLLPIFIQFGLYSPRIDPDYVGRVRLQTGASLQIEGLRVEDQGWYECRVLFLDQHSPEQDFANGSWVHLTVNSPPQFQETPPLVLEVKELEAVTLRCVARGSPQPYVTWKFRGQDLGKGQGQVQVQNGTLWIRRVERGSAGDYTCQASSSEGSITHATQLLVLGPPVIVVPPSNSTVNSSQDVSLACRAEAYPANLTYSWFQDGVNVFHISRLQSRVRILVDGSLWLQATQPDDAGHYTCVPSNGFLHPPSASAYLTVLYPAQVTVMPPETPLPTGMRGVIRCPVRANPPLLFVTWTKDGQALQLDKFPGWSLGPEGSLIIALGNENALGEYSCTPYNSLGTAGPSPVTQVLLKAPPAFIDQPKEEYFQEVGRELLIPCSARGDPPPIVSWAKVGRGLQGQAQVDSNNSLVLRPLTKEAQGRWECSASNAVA
Description: co-IP; HEK-293T cells transfected with tagged plasmids; lysates immunoprecipitated with anti-myc mouse monoclonal antibody or normal IgG, protein A/G beads, overnight at 4 °C; western blot. A general note: In western blotting, separated proteins are transferred to a membrane and probed.

Another assay has as its target T2, Myc-IGSF9 (UniProt Q05BQ1).
T2 sequence: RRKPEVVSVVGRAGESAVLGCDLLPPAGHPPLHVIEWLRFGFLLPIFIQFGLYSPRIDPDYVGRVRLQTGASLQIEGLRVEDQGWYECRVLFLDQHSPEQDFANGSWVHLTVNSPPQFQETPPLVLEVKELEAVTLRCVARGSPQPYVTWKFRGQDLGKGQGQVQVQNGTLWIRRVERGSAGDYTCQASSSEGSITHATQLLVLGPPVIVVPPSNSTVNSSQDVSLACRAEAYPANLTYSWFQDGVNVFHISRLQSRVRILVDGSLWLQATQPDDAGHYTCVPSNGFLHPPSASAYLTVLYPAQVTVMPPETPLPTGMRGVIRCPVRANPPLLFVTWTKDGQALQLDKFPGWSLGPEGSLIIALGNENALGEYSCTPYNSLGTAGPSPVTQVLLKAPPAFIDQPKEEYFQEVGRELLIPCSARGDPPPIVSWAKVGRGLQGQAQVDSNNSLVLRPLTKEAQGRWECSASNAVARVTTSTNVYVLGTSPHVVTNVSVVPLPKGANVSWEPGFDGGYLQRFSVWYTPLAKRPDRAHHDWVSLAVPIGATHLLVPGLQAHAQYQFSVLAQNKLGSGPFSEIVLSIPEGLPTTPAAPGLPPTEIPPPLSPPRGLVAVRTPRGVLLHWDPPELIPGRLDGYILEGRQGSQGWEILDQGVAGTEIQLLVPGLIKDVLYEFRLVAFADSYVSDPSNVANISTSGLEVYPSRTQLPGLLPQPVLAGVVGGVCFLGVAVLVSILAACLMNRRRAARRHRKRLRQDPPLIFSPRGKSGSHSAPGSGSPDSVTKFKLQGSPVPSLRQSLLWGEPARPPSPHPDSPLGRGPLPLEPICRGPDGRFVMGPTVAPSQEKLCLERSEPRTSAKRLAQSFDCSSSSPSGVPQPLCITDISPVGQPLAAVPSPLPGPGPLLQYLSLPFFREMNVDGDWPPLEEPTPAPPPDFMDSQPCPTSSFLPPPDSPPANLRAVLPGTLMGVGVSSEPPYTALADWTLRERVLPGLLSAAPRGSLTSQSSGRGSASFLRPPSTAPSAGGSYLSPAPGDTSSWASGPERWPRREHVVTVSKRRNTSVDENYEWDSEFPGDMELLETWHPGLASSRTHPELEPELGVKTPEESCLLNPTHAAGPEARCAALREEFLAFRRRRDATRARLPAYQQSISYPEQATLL
The assay is described as above.

Assay [2] concerns the target T3, Immunoglobulin superfamily 9 (IGSF9), endogenous in MCF-7 cells (human (endogenous in MCF-7)) (UniProt Q9P2J2).
T3 sequence: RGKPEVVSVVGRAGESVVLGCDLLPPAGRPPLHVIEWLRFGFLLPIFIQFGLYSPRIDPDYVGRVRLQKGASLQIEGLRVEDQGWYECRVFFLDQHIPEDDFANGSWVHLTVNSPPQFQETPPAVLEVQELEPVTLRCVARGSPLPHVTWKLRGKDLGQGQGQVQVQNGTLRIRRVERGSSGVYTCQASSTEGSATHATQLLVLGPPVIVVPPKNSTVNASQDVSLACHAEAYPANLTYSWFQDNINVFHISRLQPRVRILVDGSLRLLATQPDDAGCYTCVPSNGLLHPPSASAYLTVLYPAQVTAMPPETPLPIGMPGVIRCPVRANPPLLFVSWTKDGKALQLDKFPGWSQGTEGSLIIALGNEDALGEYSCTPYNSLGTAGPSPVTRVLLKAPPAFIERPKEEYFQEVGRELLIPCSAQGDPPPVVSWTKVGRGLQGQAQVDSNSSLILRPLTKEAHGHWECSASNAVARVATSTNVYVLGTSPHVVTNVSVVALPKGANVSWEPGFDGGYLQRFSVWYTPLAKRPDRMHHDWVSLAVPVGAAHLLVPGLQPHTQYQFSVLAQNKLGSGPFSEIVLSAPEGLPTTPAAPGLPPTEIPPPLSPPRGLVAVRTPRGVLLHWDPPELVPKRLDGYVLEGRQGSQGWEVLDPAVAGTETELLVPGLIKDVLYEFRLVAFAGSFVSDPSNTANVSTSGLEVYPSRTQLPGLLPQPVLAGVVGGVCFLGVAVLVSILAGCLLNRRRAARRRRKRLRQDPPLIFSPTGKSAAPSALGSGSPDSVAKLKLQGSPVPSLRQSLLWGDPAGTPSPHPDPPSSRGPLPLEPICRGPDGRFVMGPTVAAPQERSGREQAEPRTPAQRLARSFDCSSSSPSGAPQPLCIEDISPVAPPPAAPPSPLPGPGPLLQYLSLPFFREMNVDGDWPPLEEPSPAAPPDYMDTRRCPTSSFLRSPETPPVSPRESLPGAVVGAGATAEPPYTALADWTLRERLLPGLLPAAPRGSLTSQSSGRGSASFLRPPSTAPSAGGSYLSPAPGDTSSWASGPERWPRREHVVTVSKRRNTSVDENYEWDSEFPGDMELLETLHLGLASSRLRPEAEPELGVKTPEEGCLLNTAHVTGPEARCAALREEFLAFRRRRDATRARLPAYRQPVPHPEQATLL
Description: co-IP; endogenous proteins in MCF-7 cell lysate; IP lysis buffer, protein A/G beads, overnight at 4 °C; western blot; precipitating antibody for the endogenous experiment not told.

On to “Flag-FAK (from UniProt Q05397 1-1052) (enzyme)”, for which the binding result (in assay [1]; with Myc-IGSF9) was “binds” each time.

Regarding “Focal adhesion kinase (FAK), endogenous in MCF-7 cells (from UniProt Q05397 1-1052) (enzyme)”, the binding entry in assay [2] is on record as “binds”.
